{
  "source": "paper PMC7819943",
  "about": "“Rice protein-binding microarrays: a tool to detect cis-acting elements near promoter regions in rice”",
  "note": "Some of the results follow.",
  "data": [
    {"target": "T1, OsSMF1 (Oryza sativa, UniProt Q6ZLB0 1-436)", "T1 sequence": "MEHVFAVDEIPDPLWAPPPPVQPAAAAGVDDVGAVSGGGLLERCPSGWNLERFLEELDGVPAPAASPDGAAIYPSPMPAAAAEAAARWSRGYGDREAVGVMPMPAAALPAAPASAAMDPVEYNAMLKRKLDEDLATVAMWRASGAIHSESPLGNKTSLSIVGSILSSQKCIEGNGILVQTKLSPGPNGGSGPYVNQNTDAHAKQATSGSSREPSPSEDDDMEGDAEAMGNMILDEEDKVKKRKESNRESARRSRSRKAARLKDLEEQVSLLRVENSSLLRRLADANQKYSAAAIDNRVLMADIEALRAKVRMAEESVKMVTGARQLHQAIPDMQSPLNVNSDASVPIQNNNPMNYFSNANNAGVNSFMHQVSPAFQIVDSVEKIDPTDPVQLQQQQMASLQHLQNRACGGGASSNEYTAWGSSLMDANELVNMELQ", "assay": "protein-binding microarray (RPBM); PBS, 2% BSA, 51.3 ng/ul salmon testes DNA, 50 uM zinc acetate, 200 nM TF, 25 C, 1 h; high values mean tight binding", "conditions": "protein: recombinant; tags: N-terminal polyhistidine and DsRed monomer fusion (pET32a); chain copies: 2; label: CyDye5-dUTP incorporated in the synthesized complementary strand; 3' TTTTT single-stranded linker to array surface; dsDNA, one strand shown", "in_short": "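Binding signal is reported as fluorescence intensity per feature (arbitrary units) from an Axon 4000B scanner. Incubation used 200 nM of each Ni–NTA-purified, N-terminally polyhistidine- and DsRed-fused transcription factor from E. coli BL21-CodonPlus on a double-stranded custom Agilent array for 1 h at 25 °C, with 50 µM zinc acetate in the buffer, followed by washing.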", "values": [
      {"sequence": "GGACGAAAGTTGACACGGTTTTATGAGTTTGAAGACGGGCCGGAGTCACCTAGTGCAG", "binding signal": "3520 fluorescence intensity (a.u.)"},
      {"sequence": "TAAATTGACAGGTCAGCCATTCTGGCGTGGGCTGGGCCCGCGGAGTCACCTAGTGCAG", "binding signal": "8580 fluorescence intensity (a.u.)"},
      {"sequence": "TCGCTCATGAGATTGGGCATGAGTCATGAGTGGACTGGAGCGGAGTCACCTAGTGCAG", "binding signal": "5770 fluorescence intensity (a.u.)"},
      {"sequence": "GTAGTACTCAAGCAAAGTCGTTAGTAGGTAAACTGCAGACCGGAGTCACCTAGTGCAG", "binding signal": "3960 fluorescence intensity (a.u.)"},
      {"sequence": "AGTGGTGGTACTTCATCAGGACTGTCATGCAAATGCTTTGCGGAGTCACCTAGTGCAG", "binding signal": "4700 fluorescence intensity (a.u.)"},
      {"sequence": "CATCGACCACATCCTCGCGACGTCGCGTCGCGCAAGCTAGCGGAGTCACCTAGTGCAG", "binding signal": "3410 fluorescence intensity (a.u.)"},
      {"sequence": "CTGGGAAATAGTGCTGCAGAGTCACTAGTTAGATCGAAATCGGAGTCACCTAGTGCAG", "binding signal": "3980 fluorescence intensity (a.u.)"},
      {"sequence": "AGGCAGCCCATGCTTGTTCTCTCGATGTGGTCAGCAGTAGCGGAGTCACCTAGTGCAG", "binding signal": "3710 fluorescence intensity (a.u.)"},
      {"sequence": "GTGTTTCATCCGTCACAGGTGATTTTGTCATCAGTGACCACGGAGTCACCTAGTGCAG", "binding signal": "3580 fluorescence intensity (a.u.)"},
      {"sequence": "TCCACAAAATTTCTAAAGGACATACGGTGACACTTGGCATCGGAGTCACCTAGTGCAG", "binding signal": "3450 fluorescence intensity (a.u.)"},
      {"sequence": "ACGGCGCGGCGGGGCGACCAGGAGGGGCGGGGTGGCGCGGCGGAGTCACCTAGTGCAG", "binding signal": "4060 fluorescence intensity (a.u.)"},
      {"sequence": "AAACAACACCAAAGCAAAATGTGCAGGACTGTTTTACATACGGAGTCACCTAGTGCAG", "binding signal": "25600 fluorescence intensity (a.u.)"},
      {"sequence": "GGACTTATTCCTTGCGTGGCCTTCTCCACCACCTTTCTTCCGGAGTCACCTAGTGCAG", "binding signal": "6260 fluorescence intensity (a.u.)"},
      {"sequence": "GTCCAATTTAATGCTGACGTTGCTGATGGAATGCCGTGGACGGAGTCACCTAGTGCAG", "binding signal": "10500 fluorescence intensity (a.u.)"},
      {"sequence": "GGCTATGCAGAGGATAAAGATGACGCGATCGAACTGTAGTCGGAGTCACCTAGTGCAG", "binding signal": "4150 fluorescence intensity (a.u.)"},
      {"sequence": "AATGCTGCAAATACAACCAGTCAAGAATACAATGAGTCACCGGAGTCACCTAGTGCAG", "binding signal": "4350 fluorescence intensity (a.u.)"},
      {"sequence": "GGTGGCCTCCATGACCTGTCTGGATTGAGGCGCTGTCGAGCGGAGTCACCTAGTGCAG", "binding signal": "3370 fluorescence intensity (a.u.)"},
      {"sequence": "TTGAAGGGTTGATCAAATTTTGTTCAACCATGCAAGTGCACGGAGTCACCTAGTGCAG", "binding signal": "4160 fluorescence intensity (a.u.)"},
      {"sequence": "TCCAAATGTGACGTGTCTTGAAAGGCTTGAGATCCTTTTGCGGAGTCACCTAGTGCAG", "binding signal": "12200 fluorescence intensity (a.u.)"},
      {"sequence": "CTGCTTTAGTAGTTCTTACGTGGAAGGTTTGTTCGGAGTACGGAGTCACCTAGTGCAG", "binding signal": "9910 fluorescence intensity (a.u.)"},
      {"sequence": "TATTCAGACGTGTGTATCCAACACACGTGTATGCGCGTTACGGAGTCACCTAGTGCAG", "binding signal": "10800 fluorescence intensity (a.u.)"},
      {"sequence": "GGTGGAACTGGTGAAATGTGAATAGTACAAACTATCAATGCGGAGTCACCTAGTGCAG", "binding signal": "3270 fluorescence intensity (a.u.)"},
      {"sequence": "GATATGGAGACATATGTATCTGACAGCACAGCACTGCCTGCGGAGTCACCTAGTGCAG", "binding signal": "3940 fluorescence intensity (a.u.)"},
      {"sequence": "TTGCTTGCGAGCAAAGGTGGAGTTCATGCCCTCATCATATCGGAGTCACCTAGTGCAG", "binding signal": "3710 fluorescence intensity (a.u.)"},
      {"sequence": "GCTCGTACACGTCCCTCCTCCGCCTTTATTCCCTCGATATCGGAGTCACCTAGTGCAG", "binding signal": "7140 fluorescence intensity (a.u.)"},
      {"sequence": "CCACCGGCTACCGCGGGTGGGGTTTGGGTGCGCGTGGCCCCGGAGTCACCTAGTGCAG", "binding signal": "3590 fluorescence intensity (a.u.)"},
      {"sequence": "CGATCCGGAGTCCACGCCGGCACGCCGGTGGCAGCTCGCCCGGAGTCACCTAGTGCAG", "binding signal": "4700 fluorescence intensity (a.u.)"},
      {"sequence": "GTTGCTTAGATTCGGTTTCTGATATAATCTGACTTGTACACGGAGTCACCTAGTGCAG", "binding signal": "3410 fluorescence intensity (a.u.)"},
      {"sequence": "GATGCAGAGGAGTTGGCCTGGACACGGCGGTCGGACGCCTCGGAGTCACCTAGTGCAG", "binding signal": "3530 fluorescence intensity (a.u.)"},
      {"sequence": "GCGCGACGGCGGCCATCGTCGTCATCAACCCCAACAATCCCGGAGTCACCTAGTGCAG", "binding signal": "4180 fluorescence intensity (a.u.)"},
      {"sequence": "CCACTGCAGCACACCGACACGTGACACGTACACCCTCCCGCGGAGTCACCTAGTGCAG", "binding signal": "12000 fluorescence intensity (a.u.)"},
      {"sequence": "ACCCTTAGTTGATTTACAAATTCCACGTGCACCGAAGTGGCGGAGTCACCTAGTGCAG", "binding signal": "7760 fluorescence intensity (a.u.)"},
      {"sequence": "CAGGTTTACACACTATATATGAAGTTGCACTACATATTTTCGGAGTCACCTAGTGCAG", "binding signal": "3710 fluorescence intensity (a.u.)"},
      {"sequence": "GTACAGTACATGTGTACTTTGATAGATCAATTCTTCCTAACGGAGTCACCTAGTGCAG", "binding signal": "3620 fluorescence intensity (a.u.)"},
      {"sequence": "CTCGTCCTTCCACACCACGTCCAGGTCATTTCCGCCTCCTCGGAGTCACCTAGTGCAG", "binding signal": "7510 fluorescence intensity (a.u.)"},
      {"sequence": "GGCGTATTCCAAAAGCCTTGGCCACCATTATTGCGTGGCACGGAGTCACCTAGTGCAG", "binding signal": "6820 fluorescence intensity (a.u.)"},
      {"sequence": "TGGTCATAATCTCGCACCATCCACGTCGGCGTCGGCGTCGCGGAGTCACCTAGTGCAG", "binding signal": "10200 fluorescence intensity (a.u.)"},
      {"sequence": "CGTGCTTGGTCACAGTCACCCGATGATTTTGTCCGGTCTCCGGAGTCACCTAGTGCAG", "binding signal": "4520 fluorescence intensity (a.u.)"},
      {"sequence": "GCGAGGATCTTGCCGAGGTCGCTGGTGGGAGTGACGAGCACGGAGTCACCTAGTGCAG", "binding signal": "4320 fluorescence intensity (a.u.)"},
      {"sequence": "TCTCTTCCTCGCTCACTCCTCCCAGCGTCCTCGCAGGAGCCGGAGTCACCTAGTGCAG", "binding signal": "4890 fluorescence intensity (a.u.)"},
      {"sequence": "TGCTTTCCTCTCCAACCACGACCGCACCGCATCCCCTCCTCGGAGTCACCTAGTGCAG", "binding signal": "3250 fluorescence intensity (a.u.)"},
      {"sequence": "TTTGTCCTACGTGGCGTACGCGTGGCAATCCAGTCATAATCGGAGTCACCTAGTGCAG", "binding signal": "20400 fluorescence intensity (a.u.)"}
    ]}
  ]
}
